Results deposited as PubChem BioAssay AID504764 (Drosophila RNAi Screening Center, 2011)
The screen tested about 22,000 reagents; this is an unselected part of those with a known target gene and a result. Over the whole deposit, 403 (1.9%) are marked active. 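Unnormalised raw counts per well; ratio z-scores behind the hit calls and whether each hit raises or lowers signal are not deposited.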 Names joined by + are all predicted targets of the reagent. Not given: the amount of reagent.

- Aim: 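Genes whose knock-down alters Notch-dependent transcription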 (primary screen)
- Cell system: Drosophila Kc167 cells
- Reagents: long dsRNA against Drosophila genes
- Time to read-out: about 5 days (4 days dsRNA, then 24 h after transfection)
- Conditions: transfection of constitutively active membrane-tethered Notch lacking the extracellular domain, read 24 h later
- Read-out: 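Firefly luciferase from an E(spl)m3 reporter with active Notch, plus control-promoter and uninduced reporter wells for normalisation; unnormalised counts, duplicate wells a and b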
- Direction: induced reporter light, run 1, well a and induced reporter light, run 1, well b: higher = more light from the Notch target reporter with active Notch; control promoter light, run 1, well a and control promoter light, run 1, well b: higher = more light from the viral control promoter (cell number, transfection, viability); uninduced reporter light, run 1, well a: higher = more light from the Notch target reporter without active Notch
- Active means: 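Wells with low control signal or poorly matching duplicates excluded; duplicates averaged; per source plate, z beyond ±2 for induced/control log2 ratio or beyond ±1.8 for induced/uninduced marks a hit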
- Meaning of the calls: active = modifier hit (raised or lowered Notch signal); inactive = not a hit

For CG13133 [SID104182022], the entry reads induced reporter light, run 1, well a = 1.10e5; induced reporter light, run 1, well b = 1.80e5; control promoter light, run 1, well a = 88915; control promoter light, run 1, well b = 1.25e5; uninduced reporter light, run 1, well a = 18430; inactive. HP1e (Heterochromatin Protein 1e) [SID104196171] scored induced reporter light, run 1, well a = 77010; induced reporter light, run 1, well b = 70670; control promoter light, run 1, well a = 77775; control promoter light, run 1, well b = 72400; uninduced reporter light, run 1, well a = 6505; inactive. Against CG13884 [SID104188146] the deposit lists induced reporter light, run 1, well a = 1.38e5; induced reporter light, run 1, well b = 1.22e5; control promoter light, run 1, well a = 1.87e5; control promoter light, run 1, well b = 2.50e5; uninduced reporter light, run 1, well a = 8895; inactive. After knock-down of CG18278 + CG30059 [SID104185210], the screen gave induced reporter light, run 1, well a = 1.94e5; induced reporter light, run 1, well b = 2.40e5; control promoter light, run 1, well a = 3.06e5; control promoter light, run 1, well b = 2.76e5; uninduced reporter light, run 1, well a = 18738; inactive. Depletion of Spred (Sprouty-related protein with EVH-1 domain) [SID104185768] came out at: induced reporter light, run 1, well a = 81620; induced reporter light, run 1, well b = 1.01e5; control promoter light, run 1, well a = 88560; control promoter light, run 1, well b = 88635; uninduced reporter light, run 1, well a = 6965; inactive.

Not a retest: 2 of the entries above.
CG18278 + CG30059 [SID104185210] → induced reporter light, run 1, well a = 1.94e5; induced reporter light, run 1, well b = 2.40e5; control promoter light, run 1, well a = 3.06e5; control promoter light, run 1, well b = 2.76e5; uninduced reporter light, run 1, well a = 18738; activity call = inactive
Spred (Sprouty-related protein with EVH-1 domain) [SID104185768] → induced reporter light, run 1, well a = 81620; induced reporter light, run 1, well b = 1.01e5; control promoter light, run 1, well a = 88560; control promoter light, run 1, well b = 88635; uninduced reporter light, run 1, well a = 6965; activity call = inactive

The results go on:
Depletion of hdly (hadley) [SID104195641] gave: induced reporter light, run 1, well a = 2.09e5; induced reporter light, run 1, well b = 1.59e5; control promoter light, run 1, well a = 2.14e5; control promoter light, run 1, well b = 2.11e5; uninduced reporter light, run 1, well a = 13740; inactive. eEF1delta (eukaryotic translation elongation factor 1 delta) [SID104182582] gave induced reporter light, run 1, well a = 1.65e5; induced reporter light, run 1, well b = 1.54e5; control promoter light, run 1, well a = 1.43e5; control promoter light, run 1, well b = 1.40e5; uninduced reporter light, run 1, well a = 12570; inactive. With knock-down of boss (bride of sevenless) [SID104196708], the screen gave induced reporter light, run 1, well a = 1.51e5; induced reporter light, run 1, well b = 1.56e5; control promoter light, run 1, well a = 1.70e5; control promoter light, run 1, well b = 1.74e5; uninduced reporter light, run 1, well a = 11620; inactive. For CG15548 [SID104194878], the entry reads induced reporter light, run 1, well a = 1.55e5; induced reporter light, run 1, well b = 1.11e5; control promoter light, run 1, well a = 2.21e5; control promoter light, run 1, well b = 2.44e5; uninduced reporter light, run 1, well a = 11075; inactive. CG14715 [SID104194730] showed induced reporter light, run 1, well a = 1.36e5; induced reporter light, run 1, well b = 1.46e5; control promoter light, run 1, well a = 86605; control promoter light, run 1, well b = 74195; uninduced reporter light, run 1, well a = 12100; inactive. Silencing of Neurl4 (Neuralized E3 ubiquitin protein ligase 4) [SID104190430] resulted in: induced reporter light, run 1, well a = 1.36e5; induced reporter light, run 1, well b = 1.28e5; control promoter light, run 1, well a = 84090; control promoter light, run 1, well b = 1.01e5; uninduced reporter light, run 1, well a = 10215; inactive.

Silencing of CG31233 [SID104195680] came out at: induced reporter light, run 1, well a = 1.43e5; induced reporter light, run 1, well b = 1.54e5; control promoter light, run 1, well a = 1.77e5; control promoter light, run 1, well b = 1.57e5; uninduced reporter light, run 1, well a = 10800; inactive.
